# Measured values from article doi:10.1101/806968.
# Results are given in words; binding and its absence hold for the method and conditions named. In cells and extracts the contact can be indirect. Where a sequence is shown, tags or fusion partners need not be part of it.
# Biological target: T1, ME31B-GFP (Drosophila melanogaster) (UniProt P23128)
# T1 sequence: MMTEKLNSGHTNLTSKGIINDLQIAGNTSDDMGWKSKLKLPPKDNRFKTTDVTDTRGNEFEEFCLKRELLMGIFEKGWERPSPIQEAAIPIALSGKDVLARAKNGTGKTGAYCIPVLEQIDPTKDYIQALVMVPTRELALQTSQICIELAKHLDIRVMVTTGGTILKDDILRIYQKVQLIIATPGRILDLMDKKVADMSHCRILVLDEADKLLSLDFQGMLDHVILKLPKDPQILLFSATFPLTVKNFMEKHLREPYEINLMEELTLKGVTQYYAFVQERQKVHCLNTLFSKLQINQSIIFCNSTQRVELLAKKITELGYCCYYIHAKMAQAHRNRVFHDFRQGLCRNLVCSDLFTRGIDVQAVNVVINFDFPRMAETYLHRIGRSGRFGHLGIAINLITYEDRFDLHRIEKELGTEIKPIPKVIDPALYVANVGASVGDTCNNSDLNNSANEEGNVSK
# Assay: co-IP
substance,measurement,value
"RanBPM, short isoform",binding,no binding
